US20060258582A1, “Method of treating myelodysplastic syndromes” (Scios, Inc., priority 2004, published 2006)
“Also recorded” adds a separate entry of the source. At least one compound was matched to its structure with a doubt left.

What was measured:
MMP-2 = MMP-2 production from BMMNC, ELISA; assay type: cell-based, human; conditions: 10 ng/ml TGF-β; 48 hours; dose dependent
normal CD34+ progenitors [1] = test: TNFα-induced apoptosis assay in normal CD34+ cells; assay type: cell-based, human; conditions: 20 ng/ml TNFα; 100 nM compound; 24 hours
MCP-1 = MCP-1 production from TNF-stimulated BMMNC, ELISA; assay type: cell-based, human; conditions: TNF stimulation, 24 hours
[2] = test system: IL-6 secretion from BMMNC; test: IL-1β induced IL-6 secretion from BMMNC, ELISA; assay type: cell-based, human; conditions: 48 hours
[3] = test system: IL-1β-induced TNFα expression; test: IL-1β-induced TNFα expression in normal BMMNC populations, flow cytometry; assay type: cell-based, human; conditions: 50 ng/ml IL-1β; 24 hours; dose dependent
[4] = test system: CD34+ progenitors in LPS-induced BMMNC; test: LPS-induced CD34+ apoptosis and TNFα in normal BMMNC; assay type: cell-based, human; conditions: 10 ng/ml LPS; 48 h
MapKapK-2 = test: Western analysis of MapKapK-2 phosphorylation in TNFα-treated CD34+ progenitors; assay type: cell-based; conditions: human primary hematopoietic precursors; 20 ng/ml TNFα; 100 nM compound
[5] = test system: TNFα expression in CD14+ monocytes; test: TNFα expression in CD14+ monocytes of MDS BMMNC, flow cytometry; assay type: cell-based, human; conditions: 0.5 μM compound; 24 hours
[6] = test system: CD34+ progenitors in MDS BMMNC; test: apoptosis assay of CD34+ cells in MDS BMMNC culture; assay type: cell-based, human; conditions: 500 nM compound, 48 hours
BMMNC = test: protein array analysis of TNFα-induced cytokines and chemokines in BMMNC; assay type: cell-based, human; conditions: 2 ng/ml TNFα, 3 days, 1 uM compound
[7] = test system: LPS-induced IL-1β expression; test: LPS-induced intracellular IL-1β expression in normal bone marrow cells, flow cytometry; assay type: cell-based, human; conditions: 4 hours
MDS CD34+ progenitors = test: methylcellulose clonogenic assay, MDS CD34+ progenitors; assay type: cell-based, human; conditions: in vitro
Procedure: MDS BM-derived CD34+ cells from 19 patients with MDS (Table 5) were cultured in methylcellulose in the presence and absence of increasing concentrations of compound 57. Results are expressed as means+/−SEM of 19 independent experiments.
(A) Total colony numbers of (A) Blast Forming unit-erythroid (BFU-E) and (B) Colony forming unit-Granulocytic Macrophage (CFU-GM) before (control) and after compound 57 treatment (100 nM) of 19 patients with MDS (Table 5).
(§1) All participants in the study signed informed consent, approved by the institutional review board of UT Southwestern and Dallas VA Medical Center. Hematopoietic progenitor colony formation was determined by clonogenic assays in methylcellulose, as detailed in previous studies. A total of 1×10^4 isolated CD34+ progenitor cells in 0.4 ml IMDM+2% FBS were resuspended in 4 ml MethoCult® (Stem Cell Technologies) and vortexed vigorously. The CD34+ cell:methylcellulose mixture was dispensed into 35 mm culture dishes (1×10^3 cells/35 mm plate) using sterile 3 cc syringe with attached sterile 16-gauge blunt-end needle. Cell cultures were incubated at 37° C., 5% CO2 in air and >95% humidity for 14-16 days. Granulocyte/macrophage colony-forming (CFU-GM) units and erythroid burst forming units (BFU-E) from different samples were scored on day 14 of culture.

[8] = test system: panel of 70 enzymes and receptors; test: affinity in a panel of 70 enzymes and receptors; assay type: binding
normal CD34+ progenitors [9] = test: methylcellulose clonogenic assay, cytokine-suppressed normal CD34+ progenitors; assay type: cell-based, human; conditions: day 14
Procedure: Primary bone marrow derived CD34+ cells were cultured in methylcellulose in the presence and absence of 20 ng/ml TNFα and with the indicated concentrations of compound 57 (nM). BFU-E and CFU-GM colonies were scored on Day 14. Results are expressed as means+/−S.E.M. of three independent experiments.
Primary bone marrow derived CD34+ cells were cultured in methylcellulose in the presence and absence of […] IFNγ and with the indicated concentrations of the p38α inhibitors (compound 57; nM) or compound 162. BFU-E and CFU-GM colonies were scored on Day 14. Results are expressed as means+/−S.E.M. of three independent experiments.
as §1, with “Cell cultures were incubated at 37° C., 5% CO2 in air and >95% humidity for 14-16 days.” left out

[10] = test system: panel of 20 other kinases, including other MAPKs; test: selectivity over a panel of 20 other kinases; assay type: biochemical
MMP-9 = MMP-9 production from BMMNC, ELISA; assay type: cell-based, human; conditions: 48 hours
[11] = test system: TNFα secretion from BMMNC cocultures; test: TNFα secretion from BMSC/BMMNC co-cultures, ELISA; assay type: cell-based, human; conditions: 0.5 μM compound; 3 days
IFNγ production = IFNγ production in IL-12 and IL-18-induced BMMNC, ELISA; assay type: cell-based, human; conditions: 24 h
Procedure: BMMNC (1×10^6) from a normal healthy donor were stimulated with IL-12, IL-18 or both in the presence or absence of increasing concentrations of compound 57 for 24 h. IFN-γ concentration in cell supernatants was determined by ELISA. Figure represents Mean+/−SD of three independent experiments.
TNFα, IL-6, VEGF, and IFNγ concentrations of the cell culture supernatants were assayed using ELISA kits from BioSource International (Camarillo, Calif.). MCP-1, MMP-2 and MMP-9 concentrations were assayed using ELISA kits from R&D Systems.

VEGF secretion from BMSC = test: VEGF secretion from BMSC, ELISA; assay type: cell-based, human
IL-6 secretion from BMSC = test: IL-6 secretion from BMSC, ELISA; assay type: cell-based, human
[12] = normal BMSC, 24 hours, dose dependent

SMILES: COc1cc2c(cc1C(=O)N1C[C@H](C)N(Cc3ccc(F)cc3)C[C@H]1C)c(C(=O)C(=O)N(C)C)cn2C [compound 57]
- basal and TGF-β-induced secretion of MMP-2 in BMMNC (MMP-2): reduced
- TNFα-induced apoptosis of normal CD34+ progenitors (normal CD34+ progenitors [1]): inhibited; also recorded: significant decrease
- TNFα-induced MCP-1 protein in BMMNC (MCP-1): partly inhibited
- IL-1β induced IL-6 secretion in BMMNC [2]: effectively decreased
- IL-1β-stimulated TNFα expression in BM CD14+, CD3+, CD56+ and CD19+ cells [3]: inhibited
- levels of TNFα secreted in LPS-induced BMMNC cultures [4]: proportionately reduced
- proportion of viable CD34+ progenitors in LPS-induced BMMNC [4]: increased
- phosphorylation and activation of MapKapK-2 (MapKapK-2): blocking the phosphorylation
- TNFα expression in CD14+ monocytes in BMMNC isolated from MDS patients [5]: effectively inhibit
- number of viable CD34+ cells [6]: increase; also recorded: significantly greater viability
- percentage of apoptotic (Annexin V positive) CD34+ cells [6]: significant decrease; also recorded: decreased apoptosis
- SCIO-469 inhibition of TNF-induced IL-6 (BMMNC): strongly inhibited
- SCIO-469 inhibition of TNF-induced IL-8 (BMMNC): strongly inhibited
- LPS-induced IL-1β expression in BM CD14+ cells ([7]; isolated adherent BM CD14+ cells, 20 ng/ml LPS): dose dependently inhibited
- LPS-induced intracellular IL-1β expression in CD14+ and CD34+ populations ([7]; normal BMMNC, 10 ng/ml LPS): effectively reduced
- erythroid (BFU-E) and myeloid (CFU-GM) colony formation in MDS CD34+ bone marrow cells (MDS CD34+ progenitors): dose-dependently enhances
- affinity in a panel of 70 enzymes and receptors [8]: No significant affinity
- TNFα-induced decrease in erythroid and myeloid colony numbers (normal CD34+ progenitors [9]; normal CD34+ cells, 20 ng/ml TNFα, dose dependent): reversed
- IFNγ-induced suppression of erythroid and myeloid colony formation (normal CD34+ progenitors [9]; normal CD34+ progenitors, IFNγ): effective in reversing; also recorded: reverses
- selectivity for p38α over a panel of 20 other kinases, including other MAPKs [10]: at least 2000 fold
- MMP-9 secretion in TGF β-induced BMMNC (MMP-9; 10 ng/ml TGF-β, dose dependent): further reduction
- basal level production of MMP-9 in BMMNC (MMP-9): inhibited
- BMSC-induced TNFα secretion from BMMNC cocultures [11]: inhibited
- IFNγ production in BMMNC synergistically induced by IL-12 and IL-18 (IFNγ production): almost completely blocked
- VEGF production in BMSC from normal controls or MDS patients (VEGF secretion from BMSC; 0.5 μM compound, 2 days of cell culture): effectively reduced
- VEGF levels induced by coculture with normal BMMNC (VEGF secretion from BMSC; BMSC + BMMNC, 5 days): effectively reduced
- production and secretion of basal levels of VEGF (VEGF secretion from BMSC; [12]): inhibited
- IL-6 levels induced by coculture with normal BMMNC (IL-6 secretion from BMSC; BMSC + BMMNC, 5 days): effectively reduced
- production and secretion of basal levels of IL-6 (IL-6 secretion from BMSC; [12]): inhibited
